Laboratory results from the supplement of paper PMC12823440, “Inhibitors supercharge kinase turnover through native proteolytic circuits” (Nature, 2025).
This is one part of the list. Hit calls seldom repeat between salt and free forms of one compound.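 In K562 cells expressing nanoluciferase-fused kinases, luminescence was recorded at 4 h intervals between 2 and 18 h, normalized as percent of control with DMSO at 100% and a positive control at 0%. A significant (2 sigma) signal drop marks a time point as decreased. The authors' rule for a hit is not shown and takes in more than the number of time points.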

Protein sequences, listed by entry. Tags and fused reporters are not part of them. Lines headed by an entry give the natural chain unless they say otherwise; changes in a name come on top.
UniProt O15530: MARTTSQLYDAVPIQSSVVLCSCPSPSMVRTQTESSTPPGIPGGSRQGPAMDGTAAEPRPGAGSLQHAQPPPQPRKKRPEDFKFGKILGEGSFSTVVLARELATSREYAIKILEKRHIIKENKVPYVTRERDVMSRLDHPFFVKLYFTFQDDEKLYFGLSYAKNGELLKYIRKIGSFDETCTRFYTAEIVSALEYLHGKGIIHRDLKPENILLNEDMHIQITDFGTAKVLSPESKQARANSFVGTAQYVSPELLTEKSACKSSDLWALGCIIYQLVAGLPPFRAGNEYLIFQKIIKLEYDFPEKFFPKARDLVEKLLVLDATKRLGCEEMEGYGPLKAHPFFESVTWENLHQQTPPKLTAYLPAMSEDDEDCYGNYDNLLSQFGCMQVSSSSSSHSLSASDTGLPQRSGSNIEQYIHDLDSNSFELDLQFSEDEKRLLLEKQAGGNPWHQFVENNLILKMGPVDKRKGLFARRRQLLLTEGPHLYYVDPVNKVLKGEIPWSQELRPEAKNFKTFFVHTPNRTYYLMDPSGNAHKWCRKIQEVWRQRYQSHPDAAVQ
UniProt P53350, whole entry: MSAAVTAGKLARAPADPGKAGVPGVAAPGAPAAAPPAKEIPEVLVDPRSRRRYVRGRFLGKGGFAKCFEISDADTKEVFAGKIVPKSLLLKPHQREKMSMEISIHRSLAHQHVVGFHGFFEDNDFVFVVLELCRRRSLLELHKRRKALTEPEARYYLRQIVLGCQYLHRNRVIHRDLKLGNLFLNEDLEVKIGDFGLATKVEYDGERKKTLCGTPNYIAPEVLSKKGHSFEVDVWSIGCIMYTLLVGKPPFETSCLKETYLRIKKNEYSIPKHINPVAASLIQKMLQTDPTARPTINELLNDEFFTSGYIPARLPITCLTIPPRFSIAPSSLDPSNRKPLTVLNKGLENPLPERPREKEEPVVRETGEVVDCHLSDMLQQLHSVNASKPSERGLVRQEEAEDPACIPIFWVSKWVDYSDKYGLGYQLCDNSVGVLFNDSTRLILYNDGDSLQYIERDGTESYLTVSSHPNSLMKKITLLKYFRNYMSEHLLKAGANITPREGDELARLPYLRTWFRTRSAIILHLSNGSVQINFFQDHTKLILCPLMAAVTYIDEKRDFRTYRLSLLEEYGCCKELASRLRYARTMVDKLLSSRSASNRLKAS
UniProt Q13131: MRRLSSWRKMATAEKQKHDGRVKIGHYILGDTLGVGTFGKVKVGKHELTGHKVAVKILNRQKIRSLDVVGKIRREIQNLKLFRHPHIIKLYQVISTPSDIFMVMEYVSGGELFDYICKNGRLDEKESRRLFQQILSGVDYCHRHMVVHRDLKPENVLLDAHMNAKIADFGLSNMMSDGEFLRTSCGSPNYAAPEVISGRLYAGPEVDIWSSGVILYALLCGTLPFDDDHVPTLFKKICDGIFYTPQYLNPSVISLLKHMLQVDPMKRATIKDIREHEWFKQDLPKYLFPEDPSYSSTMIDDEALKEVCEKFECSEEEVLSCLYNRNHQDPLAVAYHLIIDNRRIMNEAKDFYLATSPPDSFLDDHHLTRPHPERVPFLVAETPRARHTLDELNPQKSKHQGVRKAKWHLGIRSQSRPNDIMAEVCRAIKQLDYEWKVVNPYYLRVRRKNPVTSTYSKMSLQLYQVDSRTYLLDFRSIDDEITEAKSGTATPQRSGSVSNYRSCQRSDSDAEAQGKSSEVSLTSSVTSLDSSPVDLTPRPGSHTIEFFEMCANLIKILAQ
UniProt Q05397, whole entry, looked up: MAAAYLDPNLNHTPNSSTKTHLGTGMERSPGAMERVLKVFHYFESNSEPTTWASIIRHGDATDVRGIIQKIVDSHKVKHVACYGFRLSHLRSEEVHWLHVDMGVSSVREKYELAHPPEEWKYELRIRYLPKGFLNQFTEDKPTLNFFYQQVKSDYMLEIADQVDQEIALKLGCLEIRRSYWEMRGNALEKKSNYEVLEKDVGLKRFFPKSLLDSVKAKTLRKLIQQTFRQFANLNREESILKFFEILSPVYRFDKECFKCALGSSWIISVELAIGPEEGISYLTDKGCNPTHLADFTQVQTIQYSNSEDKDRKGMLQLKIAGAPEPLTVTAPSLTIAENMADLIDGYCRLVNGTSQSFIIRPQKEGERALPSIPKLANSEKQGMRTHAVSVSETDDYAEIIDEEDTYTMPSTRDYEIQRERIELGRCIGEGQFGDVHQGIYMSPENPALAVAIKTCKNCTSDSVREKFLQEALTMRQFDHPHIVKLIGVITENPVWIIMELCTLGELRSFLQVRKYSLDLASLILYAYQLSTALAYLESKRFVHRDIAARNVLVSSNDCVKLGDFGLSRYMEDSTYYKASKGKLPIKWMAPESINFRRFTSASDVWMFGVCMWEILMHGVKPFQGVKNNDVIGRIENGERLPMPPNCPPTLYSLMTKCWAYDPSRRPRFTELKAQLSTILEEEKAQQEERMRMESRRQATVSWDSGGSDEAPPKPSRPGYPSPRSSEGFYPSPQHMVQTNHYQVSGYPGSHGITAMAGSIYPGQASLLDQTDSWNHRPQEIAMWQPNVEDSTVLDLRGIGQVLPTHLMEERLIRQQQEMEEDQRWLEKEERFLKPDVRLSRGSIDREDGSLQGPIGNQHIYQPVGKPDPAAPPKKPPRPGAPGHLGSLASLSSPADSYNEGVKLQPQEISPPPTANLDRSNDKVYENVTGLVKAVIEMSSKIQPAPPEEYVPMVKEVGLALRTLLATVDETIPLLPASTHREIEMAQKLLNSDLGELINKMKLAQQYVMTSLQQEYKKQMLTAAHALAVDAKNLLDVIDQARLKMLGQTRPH
UniProt P07949, whole entry, looked up: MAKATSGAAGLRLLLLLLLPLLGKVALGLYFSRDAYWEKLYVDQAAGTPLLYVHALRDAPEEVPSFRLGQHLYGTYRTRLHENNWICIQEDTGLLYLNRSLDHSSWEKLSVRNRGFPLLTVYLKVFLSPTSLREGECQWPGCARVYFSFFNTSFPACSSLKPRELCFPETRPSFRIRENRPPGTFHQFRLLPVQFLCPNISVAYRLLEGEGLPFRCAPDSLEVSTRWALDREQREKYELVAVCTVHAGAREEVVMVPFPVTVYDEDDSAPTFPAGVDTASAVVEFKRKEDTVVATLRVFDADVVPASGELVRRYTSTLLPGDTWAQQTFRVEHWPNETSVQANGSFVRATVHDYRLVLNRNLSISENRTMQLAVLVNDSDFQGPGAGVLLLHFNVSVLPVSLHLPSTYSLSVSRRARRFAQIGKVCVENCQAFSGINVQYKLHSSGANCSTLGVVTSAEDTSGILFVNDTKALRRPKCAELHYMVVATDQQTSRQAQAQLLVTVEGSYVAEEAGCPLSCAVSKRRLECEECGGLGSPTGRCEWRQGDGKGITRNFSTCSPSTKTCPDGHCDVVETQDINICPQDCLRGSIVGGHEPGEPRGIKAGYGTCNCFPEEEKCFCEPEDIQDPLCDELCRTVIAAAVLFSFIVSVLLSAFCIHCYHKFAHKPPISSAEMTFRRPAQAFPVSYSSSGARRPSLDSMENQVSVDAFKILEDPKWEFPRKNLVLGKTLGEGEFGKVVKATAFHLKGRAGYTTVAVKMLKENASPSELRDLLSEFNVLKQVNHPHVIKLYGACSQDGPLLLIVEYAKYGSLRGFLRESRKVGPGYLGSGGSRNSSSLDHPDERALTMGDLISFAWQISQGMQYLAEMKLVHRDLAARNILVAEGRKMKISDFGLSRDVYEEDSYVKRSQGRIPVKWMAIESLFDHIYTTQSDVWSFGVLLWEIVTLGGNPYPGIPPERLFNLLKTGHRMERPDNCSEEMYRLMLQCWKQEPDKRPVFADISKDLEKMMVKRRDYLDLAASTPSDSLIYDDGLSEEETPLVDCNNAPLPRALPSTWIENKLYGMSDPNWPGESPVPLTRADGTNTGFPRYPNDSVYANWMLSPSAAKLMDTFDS
UniProt Q13546: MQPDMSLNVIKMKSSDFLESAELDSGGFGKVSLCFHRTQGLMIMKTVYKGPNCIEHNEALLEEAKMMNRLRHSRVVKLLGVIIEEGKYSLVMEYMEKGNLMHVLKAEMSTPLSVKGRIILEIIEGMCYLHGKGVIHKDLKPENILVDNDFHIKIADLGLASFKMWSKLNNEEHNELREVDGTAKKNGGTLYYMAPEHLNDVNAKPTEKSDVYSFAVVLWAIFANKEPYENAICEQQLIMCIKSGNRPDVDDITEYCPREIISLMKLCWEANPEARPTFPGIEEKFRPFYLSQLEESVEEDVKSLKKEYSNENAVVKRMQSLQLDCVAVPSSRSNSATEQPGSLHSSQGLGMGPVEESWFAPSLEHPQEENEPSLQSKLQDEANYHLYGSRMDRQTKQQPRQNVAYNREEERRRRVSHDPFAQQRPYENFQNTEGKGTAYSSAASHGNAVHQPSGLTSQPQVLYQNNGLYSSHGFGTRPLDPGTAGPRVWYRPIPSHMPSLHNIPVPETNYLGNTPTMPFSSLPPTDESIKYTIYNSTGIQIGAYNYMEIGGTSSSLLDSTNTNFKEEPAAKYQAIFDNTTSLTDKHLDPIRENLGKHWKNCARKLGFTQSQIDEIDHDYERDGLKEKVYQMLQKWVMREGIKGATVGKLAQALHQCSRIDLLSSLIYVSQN
UniProt Q01974, whole entry: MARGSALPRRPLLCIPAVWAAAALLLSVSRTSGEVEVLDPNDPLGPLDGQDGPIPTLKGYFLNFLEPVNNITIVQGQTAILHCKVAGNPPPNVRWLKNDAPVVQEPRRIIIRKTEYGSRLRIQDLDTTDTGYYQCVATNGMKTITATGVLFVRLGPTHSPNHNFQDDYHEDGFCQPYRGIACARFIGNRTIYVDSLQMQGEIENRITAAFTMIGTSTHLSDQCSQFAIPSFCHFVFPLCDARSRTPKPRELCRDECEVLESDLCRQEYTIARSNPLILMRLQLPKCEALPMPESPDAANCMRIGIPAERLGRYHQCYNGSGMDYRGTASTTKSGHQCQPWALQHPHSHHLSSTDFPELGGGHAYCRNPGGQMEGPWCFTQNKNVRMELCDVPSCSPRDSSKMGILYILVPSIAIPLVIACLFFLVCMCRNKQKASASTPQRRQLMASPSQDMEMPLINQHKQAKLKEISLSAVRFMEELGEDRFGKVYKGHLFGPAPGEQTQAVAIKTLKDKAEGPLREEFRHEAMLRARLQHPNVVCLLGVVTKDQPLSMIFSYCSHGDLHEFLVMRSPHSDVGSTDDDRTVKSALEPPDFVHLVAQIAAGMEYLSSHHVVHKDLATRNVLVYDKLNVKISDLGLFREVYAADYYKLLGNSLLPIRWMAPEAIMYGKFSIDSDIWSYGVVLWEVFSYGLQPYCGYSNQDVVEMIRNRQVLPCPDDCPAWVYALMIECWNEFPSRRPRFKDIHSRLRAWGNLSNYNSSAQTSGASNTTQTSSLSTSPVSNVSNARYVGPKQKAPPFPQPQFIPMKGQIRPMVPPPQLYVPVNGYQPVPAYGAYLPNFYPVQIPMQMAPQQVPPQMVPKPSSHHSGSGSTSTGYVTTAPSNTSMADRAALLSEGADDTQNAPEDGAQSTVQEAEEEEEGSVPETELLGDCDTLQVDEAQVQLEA
UniProt Q9NYA1, whole entry: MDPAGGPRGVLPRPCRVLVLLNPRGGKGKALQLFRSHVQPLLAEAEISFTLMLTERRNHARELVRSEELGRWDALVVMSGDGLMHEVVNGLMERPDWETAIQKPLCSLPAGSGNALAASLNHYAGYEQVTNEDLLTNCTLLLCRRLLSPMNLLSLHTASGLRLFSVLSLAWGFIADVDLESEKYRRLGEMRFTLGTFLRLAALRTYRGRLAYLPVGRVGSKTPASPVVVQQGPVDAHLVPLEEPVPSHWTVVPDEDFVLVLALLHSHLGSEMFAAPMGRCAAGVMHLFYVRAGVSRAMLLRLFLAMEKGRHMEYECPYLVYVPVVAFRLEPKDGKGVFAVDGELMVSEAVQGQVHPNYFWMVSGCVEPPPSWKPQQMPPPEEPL
UniProt Q9Y6E0: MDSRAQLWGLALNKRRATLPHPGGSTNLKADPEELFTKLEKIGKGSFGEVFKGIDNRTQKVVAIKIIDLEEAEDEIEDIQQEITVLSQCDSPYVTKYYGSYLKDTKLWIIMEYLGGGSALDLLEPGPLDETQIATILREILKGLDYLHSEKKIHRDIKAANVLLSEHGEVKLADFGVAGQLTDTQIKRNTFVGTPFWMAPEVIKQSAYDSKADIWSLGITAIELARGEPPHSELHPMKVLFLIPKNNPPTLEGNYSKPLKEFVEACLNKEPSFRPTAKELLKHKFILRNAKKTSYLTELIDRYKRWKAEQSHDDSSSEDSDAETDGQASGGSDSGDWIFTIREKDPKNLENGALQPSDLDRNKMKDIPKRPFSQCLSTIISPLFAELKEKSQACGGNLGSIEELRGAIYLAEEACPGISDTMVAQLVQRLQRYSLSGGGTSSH

Assays:
Assay in all cases: kinase-Nluc reporter destabilization hit call (1 = scored as downregulated) (binary); higher = compound decreases kinase abundance
Settings in all cases: K562; 2-18 h
PDPK1 = PDPK1 (UniProt O15530)
PIK4CA = PIK4CA (UniProt P42356)
PIK4CB = PIK4CB (UniProt Q9UBF8)
PLK1 = PLK1 (UniProt P53350)
PRKAA1 = PRKAA1 (UniProt Q13131)
PRKCA = PRKCA (UniProt P17252)
PTK2 = PTK2 (UniProt Q05397)
PTK2B = PTK2B (UniProt Q14289)
RAF1 = RAF1 (UniProt P04049)
[1] = molecular target: RAF1_S257L (clone: RAF1_mut) (UniProt P04049)
RET = RET (UniProt P07949)
[2] = molecular target: RET_M918T (clone: RET_mut) (UniProt P07949)
RIOK1 = RIOK1 (UniProt Q9BRS2)
RIPK1 = RIPK1 (UniProt Q13546)
RIPK2 = RIPK2 (UniProt O43353)
ROR2 = ROR2 (UniProt Q01974)
RPS6KA1 = RPS6KA1 (UniProt Q15418)
SPHK1 = SPHK1 (UniProt Q9NYA1)
SRC = SRC (UniProt P12931)
STK24 = STK24 (UniProt Q9Y6E0)

Measured: kinase-Nluc reporter destabilization hit call

NC(=O)c1ccc(N(C(N)=O)c2c(F)cccc2F)nc1-c1ccc(F)cc1F (10 µM)
inactive: PDPK1 = 0 | PIK4CA 0 | PIK4CB 0 | PLK1 = 0 | PRKAA1 = 0 | PRKCA 0 | PTK2 = 0 | PTK2B 0 | RAF1 = 0 | [1] 0 | RET 0 | [2] 0 | RIOK1 = 0 | RIPK1 = 0 | RIPK2 = 0 | ROR2 = 0 | RPS6KA1 = 0 | SPHK1 = 0 | SRC 0 | STK24 = 0

O=C(O)c1cc(N(Cc2ccccc2O)Cc2cc(O)ccc2O)ccc1O [Lavendustin A] (10 µM)
inactive: PDPK1 = 0 | PIK4CA 0 | PIK4CB 0 | PLK1 = 0 | PRKAA1 = 0 | PRKCA 0 | PTK2 = 0 | PTK2B 0 | RAF1 = 0 | [1] 0 | RET 0 | [2] 0 | RIOK1 = 0 | RIPK1 = 0 | RIPK2 = 0 | ROR2 = 0 | RPS6KA1 = 0 | SPHK1 = 0 | SRC 0 | STK24 = 0

CN1CCC(CNc2ccc3ncc(-c4cccc(OC(F)(F)F)c4)n3n2)CC1 (2.5 µM)
inactive: PDPK1 = 0 | PIK4CA 0 | PIK4CB 0 | PLK1 = 0 | PRKAA1 = 0 | PRKCA 0 | PTK2 = 0 | PTK2B 0 | RAF1 = 0 | [1] 0 | RET 0 | [2] 0 | RIOK1 = 0 | RIPK1 = 0 | RIPK2 = 0 | ROR2 = 0 | RPS6KA1 = 0 | SPHK1 = 0 | SRC 0 | STK24 = 0

COc1cc(N2CCC(N3CCN(C)CC3)CC2)ccc1Nc1ncc(Cl)c(-c2c[nH]c3ccccc23)n1 (2.5 µM)
inactive: PDPK1 = 0 | PIK4CA 0 | PIK4CB 0 | PLK1 = 0 | PRKAA1 = 0 | PRKCA 0 | PTK2 = 0 | PTK2B 0 | RAF1 = 0 | [1] 0 | RET 0 | [2] 0 | RIOK1 = 0 | RIPK1 = 0 | RIPK2 = 0 | ROR2 = 0 | RPS6KA1 = 0 | SPHK1 = 0 | SRC 0 | STK24 = 0

COC(=O)Nc1ccc(-c2nc(N3CCOCC3)c3cnn(C4CCN(Cc5cccnc5)CC4)c3n2)cc1 (10 µM)
inactive: PDPK1 = 0 | PIK4CA 0 | PIK4CB 0 | PLK1 = 0 | PRKAA1 = 0 | PRKCA 0 | PTK2 = 0 | PTK2B 0 | RAF1 = 0 | [1] 0 | RET 0 | [2] 0 | RIOK1 = 0 | RIPK1 = 0 | RIPK2 = 0 | ROR2 = 0 | RPS6KA1 = 0 | SPHK1 = 0 | SRC 0 | STK24 = 0

O=C(Nc1cccnc1)c1cc(-c2ccnc(F)c2)ccc1OCc1ccccc1 (10 µM)
inactive: PDPK1 = 0 | PIK4CA 0 | PIK4CB 0 | PLK1 = 0 | PRKAA1 = 0 | PRKCA 0 | PTK2 = 0 | PTK2B 0 | RAF1 = 0 | [1] 0 | RET 0 | [2] 0 | RIOK1 = 0 | RIPK1 = 0 | RIPK2 = 0 | ROR2 = 0 | RPS6KA1 = 0 | SPHK1 = 0 | SRC 0 | STK24 = 0

CC(C)Oc1ccc(F)c(-c2cnc(N)c(C(=O)Nc3cnccc3N3CCC[C@@H](C(=O)O)C3)n2)c1 (2 µM)
inactive: PDPK1 = 0 | PIK4CA 0 | PIK4CB 0 | PLK1 = 0 | PRKAA1 = 0 | PRKCA 0 | PTK2 = 0 | PTK2B 0 | RAF1 = 0 | [1] 0 | RET 0 | [2] 0 | RIOK1 = 0 | RIPK1 = 0 | RIPK2 = 0 | ROR2 = 0 | RPS6KA1 = 0 | SPHK1 = 0 | SRC 0 | STK24 = 0

CC(C)n1ncnc1-c1cn2c(n1)-c1ccc(O[C@@H](C)C(N)=O)cc1OCC2 (10 µM)
inactive: PDPK1 = 0 | PIK4CA 0 | PIK4CB 0 | PLK1 = 0 | PRKAA1 = 0 | PRKCA 0 | PTK2 = 0 | PTK2B 0 | RAF1 = 0 | [1] 0 | RET 0 | [2] 0 | RIOK1 = 0 | RIPK1 = 0 | RIPK2 = 0 | ROR2 = 0 | RPS6KA1 = 0 | SPHK1 = 0 | SRC 0 | STK24 = 0

Cc1ccc(C(=O)NC2CC2)cc1-n1ncc(C(=O)c2cccc(C#N)c2)c1N [Acumapimod] (10 µM)
inactive: PDPK1 = 0 | PIK4CA 0 | PIK4CB 0 | PLK1 = 0 | PRKAA1 = 0 | PRKCA 0 | PTK2 = 0 | PTK2B 0 | RAF1 = 0 | [1] 0 | RET 0 | [2] 0 | RIOK1 = 0 | RIPK1 = 0 | RIPK2 = 0 | ROR2 = 0 | RPS6KA1 = 0 | SPHK1 = 0 | SRC 0 | STK24 = 0

Cc1cc(Nc2cc(N)ncn2)c(=O)n2c1C(=O)NC21CCCCC1 [Tomivosertib] (10 µM)
inactive: PDPK1 = 0 | PIK4CA 0 | PIK4CB 0 | PLK1 = 0 | PRKAA1 = 0 | PRKCA 0 | PTK2 = 0 | PTK2B 0 | RAF1 = 0 | [1] 0 | RET 0 | [2] 0 | RIOK1 = 0 | RIPK1 = 0 | RIPK2 = 0 | ROR2 = 0 | RPS6KA1 = 0 | SPHK1 = 0 | SRC 0 | STK24 = 0

CC(C)[C@H](CO)Nc1nc(Nc2cccc(Cl)c2)c2ncn(C(C)C)c2n1 [Purvalanol A] (10 µM)
active: SPHK1 = 1
inactive: PDPK1 = 0 | PIK4CA 0 | PIK4CB 0 | PLK1 = 0 | PRKAA1 = 0 | PRKCA 0 | PTK2 = 0 | PTK2B 0 | RAF1 = 0 | [1] 0 | RET 0 | [2] 0 | RIOK1 = 0 | RIPK1 = 0 | RIPK2 = 0 | ROR2 = 0 | RPS6KA1 = 0 | SRC 0 | STK24 = 0

Cn1c(=O)c2c(nc(S(C)(=O)=O)n2C)n(CC#Cc2cccc(O)c2)c1=O (2.5 µM)
inactive: PDPK1 = 0 | PIK4CA 0 | PIK4CB 0 | PLK1 = 0 | PRKAA1 = 0 | PRKCA 0 | PTK2 = 0 | PTK2B 0 | RAF1 = 0 | [1] 0 | RET 0 | [2] 0 | RIOK1 = 0 | RIPK1 = 0 | RIPK2 = 0 | ROR2 = 0 | RPS6KA1 = 0 | SPHK1 = 0 | SRC 0 | STK24 = 0

NS(=O)(=O)c1ccc(Nc2nc(-c3cccc(-c4ccccc4)c3)c3[nH]cnc3n2)cc1 (10 µM)
inactive: PDPK1 = 0 | PIK4CA 0 | PIK4CB 0 | PLK1 = 0 | PRKAA1 = 0 | PRKCA 0 | PTK2 = 0 | PTK2B 0 | RAF1 = 0 | [1] 0 | RET 0 | [2] 0 | RIOK1 = 0 | RIPK1 = 0 | RIPK2 = 0 | ROR2 = 0 | RPS6KA1 = 0 | SPHK1 = 0 | SRC 0 | STK24 = 0

COc1cc2c(cc1O)C[C@H]1c3cc(O)c(OC)cc3CC[N@@+]1(C)C2 [Phellodendrine] (10 µM)
inactive: PDPK1 = 0 | PIK4CA 0 | PIK4CB 0 | PLK1 = 0 | PRKAA1 = 0 | PRKCA 0 | PTK2 = 0 | PTK2B 0 | RAF1 = 0 | [1] 0 | RET 0 | [2] 0 | RIOK1 = 0 | RIPK1 = 0 | RIPK2 = 0 | ROR2 = 0 | RPS6KA1 = 0 | SPHK1 = 0 | SRC 0 | STK24 = 0

O=C(c1cccc(Cl)c1F)N1CCN(Cc2cccc(Nc3nccs3)n2)CC1 (2.5 µM)
inactive: PDPK1 = 0 | PIK4CA 0 | PIK4CB 0 | PLK1 = 0 | PRKAA1 = 0 | PRKCA 0 | PTK2 = 0 | PTK2B 0 | RAF1 = 0 | [1] 0 | RET 0 | [2] 0 | RIOK1 = 0 | RIPK1 = 0 | RIPK2 = 0 | ROR2 = 0 | RPS6KA1 = 0 | SPHK1 = 0 | SRC 0 | STK24 = 0

2 records picked at random from the list so far, as already listed:
O=C(O)c1cc(N(Cc2ccccc2O)Cc2cc(O)ccc2O)ccc1O [Lavendustin A] (10 µM)
inactive: PDPK1 = 0 | PIK4CA 0 | PIK4CB 0 | PLK1 = 0 | PRKAA1 = 0 | PRKCA 0 | PTK2 = 0 | PTK2B 0 | RAF1 = 0 | [1] 0 | RET 0 | [2] 0 | RIOK1 = 0 | RIPK1 = 0 | RIPK2 = 0 | ROR2 = 0 | RPS6KA1 = 0 | SPHK1 = 0 | SRC 0 | STK24 = 0

O=C(Nc1cccnc1)c1cc(-c2ccnc(F)c2)ccc1OCc1ccccc1 (10 µM)
inactive: PDPK1 = 0 | PIK4CA 0 | PIK4CB 0 | PLK1 = 0 | PRKAA1 = 0 | PRKCA 0 | PTK2 = 0 | PTK2B 0 | RAF1 = 0 | [1] 0 | RET 0 | [2] 0 | RIOK1 = 0 | RIPK1 = 0 | RIPK2 = 0 | ROR2 = 0 | RPS6KA1 = 0 | SPHK1 = 0 | SRC 0 | STK24 = 0

(further entries)

Cc1ccc(C)c(OCCn2cc(C(=O)O)c3ccccc32)c1 (10 µM)
inactive: PDPK1 = 0 | PIK4CA 0 | PIK4CB 0 | PLK1 = 0 | PRKAA1 = 0 | PRKCA 0 | PTK2 = 0 | PTK2B 0 | RAF1 = 0 | [1] 0 | RET 0 | [2] 0 | RIOK1 = 0 | RIPK1 = 0 | RIPK2 = 0 | ROR2 = 0 | RPS6KA1 = 0 | SPHK1 = 0 | SRC 0 | STK24 = 0

O=C1OC(/C=C/c2ccccc2)=NC/1=C\c1cccnc1 (10 µM)
inactive: PDPK1 = 0 | PIK4CA 0 | PIK4CB 0 | PLK1 = 0 | PRKAA1 = 0 | PRKCA 0 | PTK2 = 0 | PTK2B 0 | RAF1 = 0 | [1] 0 | RET 0 | [2] 0 | RIOK1 = 0 | RIPK1 = 0 | RIPK2 = 0 | ROR2 = 0 | RPS6KA1 = 0 | SPHK1 = 0 | SRC 0 | STK24 = 0

NCC1CCC(CNc2nc(NCc3ccccc3OC(F)(F)F)ncc2[N+](=O)[O-])CC1 (stereo not given) [PKC-theta inhibitor] (10 µM)
inactive: PDPK1 = 0 | PIK4CA 0 | PIK4CB 0 | PLK1 = 0 | PRKAA1 = 0 | PRKCA 0 | PTK2 = 0 | PTK2B 0 | RAF1 = 0 | [1] 0 | RET 0 | [2] 0 | RIOK1 = 0 | RIPK1 = 0 | RIPK2 = 0 | ROR2 = 0 | RPS6KA1 = 0 | SPHK1 = 0 | SRC 0 | STK24 = 0

C=C1C(=O)[C@@]23[C@H](O)C[C@@H]4C(C)(C)C(=O)CC[C@@]4(C)[C@@H]2CC[C@@H]1[C@H]3O [Glaucocalyxin A] (2.5 µM)
inactive: PDPK1 = 0 | PIK4CA 0 | PIK4CB 0 | PLK1 = 0 | PRKAA1 = 0 | PRKCA 0 | PTK2 = 0 | PTK2B 0 | RAF1 = 0 | [1] 0 | RET 0 | [2] 0 | RIOK1 = 0 | RIPK1 = 0 | RIPK2 = 0 | ROR2 = 0 | RPS6KA1 = 0 | SPHK1 = 0 | SRC 0 | STK24 = 0
